Laboratory results published in the supplement of paper PMC7666118.
This is one part of the list.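 Rule for the calls: active = dose-dependent thermal stabilisation significant by F-test of dose-response against flat model at 10% FDR; inactive = not significant.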

Amino acid sequences for entries named in this document (tags omitted). A change or cut given only in a name is not applied to a line headed by its entry.
UniProt Q15649: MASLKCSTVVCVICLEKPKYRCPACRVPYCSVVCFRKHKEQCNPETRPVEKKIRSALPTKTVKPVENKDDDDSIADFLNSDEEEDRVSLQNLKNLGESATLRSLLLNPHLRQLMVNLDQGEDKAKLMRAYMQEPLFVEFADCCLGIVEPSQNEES
UniProt Q8NAF0: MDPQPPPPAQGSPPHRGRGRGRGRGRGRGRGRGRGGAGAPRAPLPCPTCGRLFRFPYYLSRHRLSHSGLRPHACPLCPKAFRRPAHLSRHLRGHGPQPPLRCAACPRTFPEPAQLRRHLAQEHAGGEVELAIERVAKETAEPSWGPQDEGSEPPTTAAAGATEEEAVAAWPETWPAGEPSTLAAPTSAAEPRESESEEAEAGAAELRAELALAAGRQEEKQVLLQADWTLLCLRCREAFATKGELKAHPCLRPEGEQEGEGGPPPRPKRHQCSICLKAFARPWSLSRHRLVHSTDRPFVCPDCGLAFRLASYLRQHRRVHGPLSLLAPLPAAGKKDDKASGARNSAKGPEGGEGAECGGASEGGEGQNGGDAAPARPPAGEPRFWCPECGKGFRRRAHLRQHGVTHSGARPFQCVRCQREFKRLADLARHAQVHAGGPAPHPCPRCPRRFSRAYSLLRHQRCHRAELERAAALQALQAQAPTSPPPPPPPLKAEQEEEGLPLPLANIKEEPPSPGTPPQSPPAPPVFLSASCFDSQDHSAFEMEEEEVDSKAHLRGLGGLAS
UniProt Q5VUA4: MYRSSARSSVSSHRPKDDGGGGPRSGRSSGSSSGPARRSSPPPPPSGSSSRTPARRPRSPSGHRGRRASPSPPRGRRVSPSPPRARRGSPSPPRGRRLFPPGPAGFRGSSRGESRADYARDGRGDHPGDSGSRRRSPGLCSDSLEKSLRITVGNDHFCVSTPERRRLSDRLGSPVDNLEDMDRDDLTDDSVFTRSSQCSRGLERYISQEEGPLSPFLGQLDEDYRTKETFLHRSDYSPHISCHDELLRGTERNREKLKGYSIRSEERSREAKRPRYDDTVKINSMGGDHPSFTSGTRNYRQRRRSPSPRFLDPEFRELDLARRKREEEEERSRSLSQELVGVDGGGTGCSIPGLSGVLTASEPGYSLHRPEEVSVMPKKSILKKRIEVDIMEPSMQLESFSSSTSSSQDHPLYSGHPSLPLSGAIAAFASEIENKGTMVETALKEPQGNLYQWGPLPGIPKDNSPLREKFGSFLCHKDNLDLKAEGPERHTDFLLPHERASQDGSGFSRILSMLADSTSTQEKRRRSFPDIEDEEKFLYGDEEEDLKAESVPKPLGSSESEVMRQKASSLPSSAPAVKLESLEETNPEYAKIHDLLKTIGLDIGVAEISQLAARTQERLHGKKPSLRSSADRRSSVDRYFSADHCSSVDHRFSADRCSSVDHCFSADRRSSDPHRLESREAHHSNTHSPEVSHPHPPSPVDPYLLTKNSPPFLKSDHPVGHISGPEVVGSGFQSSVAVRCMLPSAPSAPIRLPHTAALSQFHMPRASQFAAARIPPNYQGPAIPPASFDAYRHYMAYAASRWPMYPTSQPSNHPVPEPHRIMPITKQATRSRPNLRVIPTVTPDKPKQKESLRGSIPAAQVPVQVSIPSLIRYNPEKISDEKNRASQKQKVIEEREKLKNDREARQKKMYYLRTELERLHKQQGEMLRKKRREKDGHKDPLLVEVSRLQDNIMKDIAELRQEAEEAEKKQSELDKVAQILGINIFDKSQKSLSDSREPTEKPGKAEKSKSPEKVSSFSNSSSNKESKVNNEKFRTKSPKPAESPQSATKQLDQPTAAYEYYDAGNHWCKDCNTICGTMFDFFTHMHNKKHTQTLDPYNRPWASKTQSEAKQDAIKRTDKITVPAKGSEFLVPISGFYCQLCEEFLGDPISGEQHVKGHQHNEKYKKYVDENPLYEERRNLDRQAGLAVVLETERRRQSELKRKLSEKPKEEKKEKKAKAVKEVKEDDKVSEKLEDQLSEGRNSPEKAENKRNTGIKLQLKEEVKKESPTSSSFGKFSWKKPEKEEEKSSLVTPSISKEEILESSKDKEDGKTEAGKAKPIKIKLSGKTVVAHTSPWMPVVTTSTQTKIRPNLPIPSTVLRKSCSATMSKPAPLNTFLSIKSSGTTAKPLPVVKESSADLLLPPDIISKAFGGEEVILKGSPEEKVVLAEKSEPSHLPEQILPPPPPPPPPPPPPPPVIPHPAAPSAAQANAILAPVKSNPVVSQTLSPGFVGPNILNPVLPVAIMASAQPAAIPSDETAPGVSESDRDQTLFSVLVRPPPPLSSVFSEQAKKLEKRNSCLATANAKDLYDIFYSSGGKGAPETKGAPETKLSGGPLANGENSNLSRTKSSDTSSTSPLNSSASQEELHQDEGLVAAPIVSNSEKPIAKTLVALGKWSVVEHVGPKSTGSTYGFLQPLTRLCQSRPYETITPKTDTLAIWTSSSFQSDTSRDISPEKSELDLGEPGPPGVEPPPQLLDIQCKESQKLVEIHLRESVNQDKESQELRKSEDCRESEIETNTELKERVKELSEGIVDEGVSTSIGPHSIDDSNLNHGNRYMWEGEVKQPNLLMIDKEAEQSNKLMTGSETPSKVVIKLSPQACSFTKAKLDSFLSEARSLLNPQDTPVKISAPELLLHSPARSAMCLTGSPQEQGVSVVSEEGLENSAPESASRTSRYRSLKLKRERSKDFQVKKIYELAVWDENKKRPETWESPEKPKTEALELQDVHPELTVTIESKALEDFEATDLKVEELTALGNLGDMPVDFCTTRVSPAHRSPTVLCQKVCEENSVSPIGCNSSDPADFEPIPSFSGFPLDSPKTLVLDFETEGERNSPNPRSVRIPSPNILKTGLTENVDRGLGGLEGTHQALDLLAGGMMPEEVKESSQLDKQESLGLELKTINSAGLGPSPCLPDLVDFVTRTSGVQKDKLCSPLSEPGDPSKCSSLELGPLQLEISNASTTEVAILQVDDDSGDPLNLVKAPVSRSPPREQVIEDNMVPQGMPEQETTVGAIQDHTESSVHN
UniProt Q9Y5V0: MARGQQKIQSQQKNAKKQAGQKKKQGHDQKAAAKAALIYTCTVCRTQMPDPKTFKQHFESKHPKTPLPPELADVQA
UniProt Q8NB15: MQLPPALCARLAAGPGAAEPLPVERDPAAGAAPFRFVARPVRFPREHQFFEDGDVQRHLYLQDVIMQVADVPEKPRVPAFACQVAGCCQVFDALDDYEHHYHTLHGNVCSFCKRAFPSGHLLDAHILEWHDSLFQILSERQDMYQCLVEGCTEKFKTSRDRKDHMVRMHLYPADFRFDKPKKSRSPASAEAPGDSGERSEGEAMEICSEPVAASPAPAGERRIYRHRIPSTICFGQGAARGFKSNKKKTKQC
UniProt O95229: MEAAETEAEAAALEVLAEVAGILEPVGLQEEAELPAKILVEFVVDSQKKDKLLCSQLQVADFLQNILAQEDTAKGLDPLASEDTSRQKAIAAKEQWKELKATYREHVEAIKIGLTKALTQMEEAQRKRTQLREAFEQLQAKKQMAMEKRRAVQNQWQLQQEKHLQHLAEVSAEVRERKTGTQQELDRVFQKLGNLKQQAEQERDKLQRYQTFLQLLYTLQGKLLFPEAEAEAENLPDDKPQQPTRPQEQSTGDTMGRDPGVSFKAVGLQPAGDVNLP
UniProt Q7Z3T8: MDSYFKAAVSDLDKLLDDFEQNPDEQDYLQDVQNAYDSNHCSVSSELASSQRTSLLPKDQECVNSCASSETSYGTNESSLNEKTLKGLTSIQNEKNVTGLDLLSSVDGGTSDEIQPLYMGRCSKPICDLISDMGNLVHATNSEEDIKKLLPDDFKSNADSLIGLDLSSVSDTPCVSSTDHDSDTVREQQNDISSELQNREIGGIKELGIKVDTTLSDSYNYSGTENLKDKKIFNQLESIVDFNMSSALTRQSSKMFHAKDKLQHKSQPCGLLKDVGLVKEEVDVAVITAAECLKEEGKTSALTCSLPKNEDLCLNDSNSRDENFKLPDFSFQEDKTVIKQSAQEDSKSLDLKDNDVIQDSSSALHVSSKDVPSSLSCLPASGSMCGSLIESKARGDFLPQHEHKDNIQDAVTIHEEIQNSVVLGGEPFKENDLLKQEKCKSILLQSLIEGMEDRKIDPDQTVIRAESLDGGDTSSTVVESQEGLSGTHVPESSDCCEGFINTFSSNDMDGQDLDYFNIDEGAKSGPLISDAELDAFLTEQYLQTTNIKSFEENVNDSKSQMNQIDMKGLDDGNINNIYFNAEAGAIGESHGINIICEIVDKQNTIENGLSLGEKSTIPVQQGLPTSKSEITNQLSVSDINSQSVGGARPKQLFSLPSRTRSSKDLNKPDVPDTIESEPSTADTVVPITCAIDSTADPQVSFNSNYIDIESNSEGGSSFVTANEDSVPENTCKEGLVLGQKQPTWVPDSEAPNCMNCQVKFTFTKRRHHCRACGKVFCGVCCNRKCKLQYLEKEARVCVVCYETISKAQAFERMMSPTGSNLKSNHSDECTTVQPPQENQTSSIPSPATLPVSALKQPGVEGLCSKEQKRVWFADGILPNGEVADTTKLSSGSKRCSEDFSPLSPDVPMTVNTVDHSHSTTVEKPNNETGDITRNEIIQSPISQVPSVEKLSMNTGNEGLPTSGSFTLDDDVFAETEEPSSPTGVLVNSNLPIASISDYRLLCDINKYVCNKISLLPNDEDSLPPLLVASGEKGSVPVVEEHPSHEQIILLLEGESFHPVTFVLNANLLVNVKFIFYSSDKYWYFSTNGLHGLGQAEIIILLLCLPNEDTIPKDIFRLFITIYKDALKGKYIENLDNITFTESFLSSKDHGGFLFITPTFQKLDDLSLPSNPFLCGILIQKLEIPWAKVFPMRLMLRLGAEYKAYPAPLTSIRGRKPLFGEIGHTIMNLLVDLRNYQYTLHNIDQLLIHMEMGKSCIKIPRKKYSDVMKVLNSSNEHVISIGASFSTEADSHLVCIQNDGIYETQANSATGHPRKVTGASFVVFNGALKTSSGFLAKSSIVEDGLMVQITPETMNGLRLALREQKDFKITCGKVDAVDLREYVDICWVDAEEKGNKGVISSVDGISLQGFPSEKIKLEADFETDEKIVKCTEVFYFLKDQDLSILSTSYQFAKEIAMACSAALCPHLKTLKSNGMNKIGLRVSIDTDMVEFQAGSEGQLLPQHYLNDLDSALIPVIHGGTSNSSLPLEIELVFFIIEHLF
UniProt Q9P2Y4: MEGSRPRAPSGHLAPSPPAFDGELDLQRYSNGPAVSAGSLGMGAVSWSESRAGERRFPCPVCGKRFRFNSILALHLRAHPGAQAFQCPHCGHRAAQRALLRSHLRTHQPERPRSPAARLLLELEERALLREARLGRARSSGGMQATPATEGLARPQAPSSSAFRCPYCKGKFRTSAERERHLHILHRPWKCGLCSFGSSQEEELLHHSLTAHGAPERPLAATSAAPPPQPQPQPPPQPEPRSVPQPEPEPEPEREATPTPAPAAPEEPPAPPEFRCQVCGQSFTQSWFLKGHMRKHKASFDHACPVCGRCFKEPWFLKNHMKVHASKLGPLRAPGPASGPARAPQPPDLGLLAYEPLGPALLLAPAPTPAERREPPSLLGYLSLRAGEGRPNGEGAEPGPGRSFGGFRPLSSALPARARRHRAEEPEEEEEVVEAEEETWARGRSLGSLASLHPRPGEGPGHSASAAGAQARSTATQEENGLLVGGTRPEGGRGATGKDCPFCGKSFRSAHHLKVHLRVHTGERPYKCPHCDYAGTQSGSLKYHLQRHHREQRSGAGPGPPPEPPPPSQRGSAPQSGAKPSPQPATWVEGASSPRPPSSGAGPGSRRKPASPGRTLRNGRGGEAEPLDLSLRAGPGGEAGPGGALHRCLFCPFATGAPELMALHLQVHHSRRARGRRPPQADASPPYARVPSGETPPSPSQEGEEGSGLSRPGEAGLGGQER
UniProt Q8ND25: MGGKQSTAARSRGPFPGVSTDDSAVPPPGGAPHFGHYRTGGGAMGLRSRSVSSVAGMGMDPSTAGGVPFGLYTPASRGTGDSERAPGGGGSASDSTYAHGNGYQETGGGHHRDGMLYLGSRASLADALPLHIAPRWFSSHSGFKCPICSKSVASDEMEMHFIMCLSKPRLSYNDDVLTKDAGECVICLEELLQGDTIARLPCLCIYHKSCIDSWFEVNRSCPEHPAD
UniProt Q96K21: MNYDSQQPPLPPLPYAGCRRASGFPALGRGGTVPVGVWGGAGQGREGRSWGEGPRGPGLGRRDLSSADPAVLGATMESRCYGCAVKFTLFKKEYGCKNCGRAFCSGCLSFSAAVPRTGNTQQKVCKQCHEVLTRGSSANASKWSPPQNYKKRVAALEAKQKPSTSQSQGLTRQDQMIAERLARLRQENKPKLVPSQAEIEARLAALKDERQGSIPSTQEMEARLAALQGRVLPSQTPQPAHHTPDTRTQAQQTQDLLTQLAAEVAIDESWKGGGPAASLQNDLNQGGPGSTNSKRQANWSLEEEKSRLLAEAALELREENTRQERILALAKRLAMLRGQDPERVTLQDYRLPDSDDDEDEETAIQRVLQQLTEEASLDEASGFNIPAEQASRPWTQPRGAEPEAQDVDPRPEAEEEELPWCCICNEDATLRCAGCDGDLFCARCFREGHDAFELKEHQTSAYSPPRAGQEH

These targets were tested with Nc1nc2c(ncn2[C@@H]2O[C@H](COP(=O)(O)OP(=O)(O)OP(=O)(O)O)[C@@H](O)[C@H]2O)c(=O)[nH]1 (assay: dose-dependent thermal stabilisation call (2D-TPP, DLPTP, 10% FDR) (binary (1 = stabilised)); higher = stabilised by the compound). Conditions: system: Jurkat gel-filtered lysate; concentration range 1-500 µM.
Protocol: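 2D thermal proteome profiling in gel-filtered Jurkat E6.1 lysate (2 mg/ml) treated with NaGTP (0, 1, 10, 100, 500 uM) for 10 min at room temperature, then heated 3 min at one of 12 temperatures (42-63.9 C). Soluble protein was quantified by TMT10 MS. The value is the DLPTP call of the paper: dose-dependent thermal stabilisation over all temperatures at 10% FDR (F-test of a dose-response against a flat model); one experiment, one call per tested protein.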

Target	dose-dependent thermal stabilisation call
ZNF646 (UniProt O15015)	inactive: 0
ZNF143 (UniProt P52747)	inactive: 0
ZNHIT3 (UniProt Q15649)	inactive: 0
ZNF579 (UniProt Q8NAF0)	inactive: 0
ZNF507 (UniProt Q8TCN5)	inactive: 0
ZNF148 (UniProt Q9UQR1)	inactive: 0
ZHX2 (UniProt Q9Y6X8)	inactive: 0
ZFP36L2 (UniProt P47974)	inactive: 0
ZNF318 (UniProt Q5VUA4)	inactive: 0
ZMYM1 (UniProt Q5SVZ6)	inactive: 0
ZNF280D (UniProt Q6N043)	inactive: 0
ZNF326 (UniProt Q5BKZ1)	inactive: 0
ZNF672 (UniProt Q499Z4)	active: 1
ZRANB2 (UniProt O95218)	inactive: 0
ZNF706 (UniProt Q9Y5V0)	inactive: 0
ZNF217 (UniProt O75362)	inactive: 0
ZFYVE1 (UniProt Q9HBF4)	inactive: 0
ZFP91 (UniProt Q96JP5)	inactive: 0
ZNF511 (UniProt Q8NB15)	inactive: 0
ZGRF1 (UniProt Q86YA3)	inactive: 0

2 entries picked at random from those above:
Target	dose-dependent thermal stabilisation call
ZNF511 (UniProt Q8NB15)	inactive: 0
ZNF280D (UniProt Q6N043)	inactive: 0

The list continues:

Target	dose-dependent thermal stabilisation call
ZWINT (UniProt O95229)	inactive: 0
ZNF451 (UniProt Q9Y4E5)	inactive: 0
ZNF131 (UniProt P52739)	inactive: 0
ZNF638 (UniProt Q14966)	inactive: 0
ZYG11B (UniProt Q9C0D3)	inactive: 0
ZFYVE16 (UniProt Q7Z3T8)	inactive: 0
ZNF639 (UniProt Q9UID6)	inactive: 0
ZNF219 (UniProt Q9P2Y4)	inactive: 0
ZFYVE9 (UniProt O95405)	inactive: 0
ZNF592 (UniProt Q92610)	inactive: 0
ZNF696 (UniProt Q9H7X3)	inactive: 0
ZGPAT (UniProt Q8N5A5)	inactive: 0
ZNF316 (UniProt A6NFI3)	inactive: 0
ZNRF1 (UniProt Q8ND25)	inactive: 0
ZKSCAN1 (UniProt P17029)	inactive: 0
ZNF644 (UniProt Q9H582)	inactive: 0
ZSCAN21 (UniProt Q9Y5A6)	inactive: 0
ZFYVE21 (UniProt Q9BQ24)	inactive: 0
ZFYVE19 (UniProt Q96K21)	inactive: 0
ZNF830 (UniProt Q96NB3)	inactive: 0
